Results taken from PubChem BioAssay AID504834 (National Center for Advancing Translational Sciences (NCATS), 2011).
Where “and” joins values, the source holds several entries; their conditions need not be identical. Equal entries are not always repeated. In all, about 320,000 compounds went through this assay and about 22,000 (6.9%) were called active. This list was built around the results that the source calls inconclusive (neither active nor inactive); the mix of calls is not that of the screen. Calls come from the whole dose curve; as a rule, active = well fitted inhibition curve with a large enough effect; inconclusive = small, poorly fitted or top-dose-only effect, or another doubt; inactive = no such curve, though single readings can be large or run the other way. Potencies beside an inconclusive call are fits to weak or partial responses and may not hold up.

Experiment: Primary qHTS for delayed death inhibitors of the malarial parasite plastid, 96 hour incubation
Conditions: P. falciparum luciferase reporter growth; series mostly up to 28.7 µM; activity change, negative = inhibition: at the top concentration
Procedure, shortened: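 Two-generation exposure (96 h) targets delayed-death phenotype. Reporter parasites carrying integrated firefly luciferase, in red cells at 2% hematocrit and 0.05% parasitemia final, kept at 37 C, 5% CO2; luminescence loss indicates inhibition.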
% is set by controls: 0 for no effect and ±100 for the full control effect; potency is the fitted concentration of half-maximal effect.

Row | Structure (SMILES) | activity change, negative = inhibition | Potency
1 | O=C(COC(=O)CCSc1ccccc1)NCc1ccccc1Cl | inactive: -20.7% | 
2 | O=C(CN1CC=C(c2ccccc2)CC1)NC(=O)NC1CCCCC1 |  | inconclusive: 18.5 µM [inhibitor, single point]
3 | Cc1ccc(S(=O)(=O)CC#CCOC(=O)c2ccc([N+](=O)[O-])cc2)cc1 |  | inconclusive: 10.4 µM [inhibitor, partial curve]
4 | O=C(CN1C(=O)CCS(=O)(=O)c2ccccc21)Nc1ccc2c(c1)OCCO2 | inactive: 1.66% | 
5 | Cn1c(N)c(C(=O)COC(=O)C2CC(O)CN2S(=O)(=O)c2ccc(Cl)cc2)c(=O)n(C)c1=O (configuration not stated) |  | inconclusive: 2.33 µM [inhibitor, partial curve, poor fit]
6 | CC(C)Oc1ccc(C(CC(=O)O)NC(=O)CSc2ncn[nH]2)cc1 (configuration not stated) | inactive: 1.14% | 
7 | Cc1cc2c(ccc3c2no[n+]3[O-])nn1 |  | inconclusive: 4.65 µM [inhibitor, partial curve, poor fit]
8 | C=CCNC(=S)Nc1ccc(N2CCOCC2)c(S(=O)(=O)Nc2ccccc2Cl)c1 | inactive: -17.1% | 
9 | C/C(=N/Nc1ccnc2cc(Cl)ccc12)c1ccc(N)cc1 |  | active: 0.465 µM
10 | Cc1cccc(Cn2c(SCCN3CCCCC3)nc3c2c(=O)[nH]c(=O)n3C)c1 |  | inconclusive: 0.415 µM [inhibitor, full curve]
11 | O=C(c1cccc(C(F)(F)F)c1)C1CCCN(Cc2cccn2-c2ccccn2)C1 (configuration not stated) | inactive: 12.5% | 
12 | COc1cc(NC(=S)Nc2ccccn2)cc(OC)c1OC |  | inconclusive: 4.15 µM [inhibitor, partial curve, poor fit]
13 | C=CCn1cc(C(=O)c2cc(Br)ccc2O)cc(C#N)c1=O |  | inconclusive: 10.4 µM [inhibitor, single point]
14 | COc1cc(OC)cc(C(=O)N[C@H](C(=O)NCc2ccc(F)cc2)C(C)C)c1 |  | inconclusive: 4.65 µM [inhibitor, partial curve, poor fit]
15 | CC(C)CCNC(=O)c1onc(CSc2ccc(Cl)cc2)c1C(=O)NCCC(C)C |  | inconclusive: 11.7 µM [inhibitor, single point]
16 | O=C(Cc1cccs1)N/N=C/C(Br)=C/c1ccccc1 | inactive: 15.5% | 
17 | O=[N+]([O-])c1cc2c(cc1CN1CCN(CCOCCO)CC1)OCO2 |  | inconclusive: 18.5 µM [inhibitor, single point]
18 | O=C(Nc1cccc(-c2cn3ccccc3n2)c1)c1cccc(Cl)c1 |  | inconclusive: 18.5 µM [inhibitor, single point]
19 | Cc1sc2nc(CN3CCOCC3)nc(N3CCOCC3)c2c1C |  | inconclusive: 11.7 µM [inhibitor, single point]
20 | CN(C)CCCN(C(=O)CCc1ccccc1)c1nc2ccc(Cl)cc2s1 |  | active: 10.4 µM
21 | Cc1ccccc1OCC(=O)NC(=S)Nc1ccccc1N1CCN(S(C)(=O)=O)CC1 | inactive: 42.8% | 
22 | COc1ccc(CN2C(=NC(=O)c3ccccc3)SC3CS(=O)(=O)CC32)cc1OC (configuration not stated) |  | inconclusive: 18.5 µM [inhibitor, single point]
23 | CCOC(=O)N1CCN(c2ccc(S(=O)(=O)N(Cc3ccccc3)Cc3ccccc3)cn2)CC1 | inactive: -29.4% | 
24 | O=C(Nc1cccc(O)c1)c1ccccc1[N+](=O)[O-] | inactive: 6.37% | 

Row | Structure (SMILES) | activity change, negative = inhibition | Potency
25 | COc1ccc(NC(=O)C2CCC2)cc1S(=O)(=O)N1CCOCC1 |  | inconclusive: 18.5 µM [inhibitor, single point]
26 | N#CCC(=O)Nc1ncc(Cc2ccccc2Cl)s1 | inactive: 50.5% [at 1.15 µM] | 
27 | C=CCN1C(=O)NC(c2ccccc2)(C(F)(F)F)S/C1=C(\C#N)c1nnc(N2CCOCC2)n1-c1ccccc1 (configuration not stated) | inactive: -28.6% | 
28 | CC(=O)O[C@]1(C(C)=O)CC[C@H]2[C@@H]3C[C@H](C)C4=CC(=O)CC[C@]4(C)[C@H]3CC[C@@]21C |  | active: 11.7 µM
29 | CC(C)OCCCNC(=O)c1cc(S(=O)(=O)N2CCCCC2)c[nH]1 |  | inconclusive: 18.5 µM [inhibitor, single point]
30 | O=C(CCC(=O)Nc1ccc(Br)cc1)N/N=C/c1ccccc1O |  | inconclusive: 4.15 µM [inhibitor, full curve]
31 | CC(N=C1NS(=O)(=O)c2ccccc21)C(=O)N1CCc2ccccc2C1 (configuration not stated) | inactive: 50.6% | 
32 | Nc1cc(Cl)ccc1C(=O)OCC(=O)NC1CCCCC1 | inactive: 27.3% | 
33 | Cc1cc(C)nc(CCNC(=O)c2cc(COc3ccccc3)on2)n1 |  | inconclusive: 20.8 µM [inhibitor, partial curve, poor fit]
34 | CC(=O)Nc1ccccc1C(=O)OCc1cccc(F)c1 | inactive: 13% | 
35 | Cc1ccc(NC(=O)c2ccc3c(c2)OCO3)cc1Cl |  | inconclusive: 6.57 µM [inhibitor, partial curve, poor fit]
36 | COc1cccc(NC(=O)C(=O)N2CCOCC2)c1 | inactive: 0.766% | 
37 | O=C(c1cccn2c(=O)c3cc(Cl)ccc3nc12)N1CCOCC1 |  | active: 10.4 µM
38 | O=C(O)c1cc(-c2ccccc2)nc2ccccc12 |  | inactive and inconclusive: 10.7 µM [inhibitor, partial curve, poor fit]
39 | O=C(Nc1cccc(NC(=O)c2ccco2)c1)c1cccc(Br)c1 | inactive: -13.5% | 
40 | CCN(CC(=O)NC1CCS(=O)(=O)C1)S(=O)(=O)c1cccc(C(C)=O)c1 (configuration not stated) | inactive: -3.99% | 
41 | CCS(=O)(=O)n1nc(-c2ccccc2)cc1N |  | active: 1.31 µM
42 | CC1CCN(c2ccc(NC(=O)c3cccnc3)cc2)CC1 | inactive: 8.23% | 
43 | COc1nnc(-c2ccc(C)cc2)c2ccccc12 |  | inconclusive: 11.7 µM [inhibitor, partial curve, poor fit]
44 | CS(=O)CSc1nc2c(cc1C#N)CCCC2 (configuration not stated) |  | inconclusive: 18.5 µM [inhibitor, single point]
45 | CC1Cc2ccccc2N1C(=O)COC(=O)c1ccc(Cl)c(S(=O)(=O)N2CCOCC2)c1 (configuration not stated) |  | inconclusive: 9.28 µM [inhibitor, partial curve, poor fit]
46 | Cc1cccnc1NC(=O)Cn1nc([N+](=O)[O-])cc1C |  | inconclusive: 18.5 µM [inhibitor, single point]
47 | CC(C#N)Sc1nnc(Nc2ccccc2)s1 (configuration not stated) | inactive: 16.7% | 
48 | CC1(C)OC(=O)C(=NNc2ccc(O)cc2)C(=O)O1 | inactive: 46.6% | 

A few values from the list:
Potency, O=C(O)c1cc(-c2ccccc2)nc2ccccc12 reads inactive and inconclusive: 10.7 µM [inhibitor, partial curve, poor fit]
activity change, negative = inhibition, CC(C#N)Sc1nnc(Nc2ccccc2)s1 (configuration not stated) reads inactive: 16.7%
Potency, Cc1cc(C)nc(CCNC(=O)c2cc(COc3ccccc3)on2)n1 reads inconclusive: 20.8 µM [inhibitor, partial curve, poor fit]

Retrieved by structure from the entries so far:
Row | Structure (SMILES) | activity change, negative = inhibition | Potency
45 | CC1Cc2ccccc2N1C(=O)COC(=O)c1ccc(Cl)c(S(=O)(=O)N2CCOCC2)c1 (configuration not stated) |  | inconclusive: 9.28 µM [inhibitor, partial curve, poor fit]
17 | O=[N+]([O-])c1cc2c(cc1CN1CCN(CCOCCO)CC1)OCO2 |  | inconclusive: 18.5 µM [inhibitor, single point]

(list continues)

Row | Structure (SMILES) | activity change, negative = inhibition | Potency
49 | Cc1ccccc1NC(=O)c1ccccc1-c1ccccc1 |  | inconclusive: 18.5 µM [inhibitor, partial curve, poor fit]
50 | CCN1C(=O)N(C)[C@@H](c2ccccc2)C(C(=O)OC)=C1C | inactive: -23.3% | 
51 | O=C(O)c1cccc(N2C(=O)/C(=C/c3ccc([N+](=O)[O-])cc3)C=C2c2ccccc2)c1 |  | inconclusive: 0.233 µM [inhibitor, full curve, poor fit]
52 | O=C(c1ccncc1)N1CCN(S(=O)(=O)c2cccc(Cl)c2)CC1 |  | inconclusive: 11.7 µM [inhibitor, single point]
53 | COc1cccc(NC(=O)CN2CCN(S(=O)(=O)c3ccc(C(C)C)cc3)CC2)c1 |  | active: 11.7 µM
54 | Cc1cccc(-n2cc(-c3ccccc3)c3c(=O)[nH]cnc32)c1 |  | inconclusive: 18.5 µM [inhibitor, single point]
55 | CC(C)C(OC(=O)c1cc2occc2n1C)C(=O)NCc1ccc2c(c1)OCO2 (configuration not stated) |  | inconclusive: 1.47 µM [inhibitor, partial curve, poor fit]
56 | CCc1ccc(NC(=O)c2ccc3c(c2)C(=O)N(CCOC)C3Nc2ccc(CC)cc2)cc1 (configuration not stated) |  | inconclusive: 18.5 µM [inhibitor, single point]
57 | Cc1cc(NC(=O)c2ccc3nc(-c4ccccc4)c(-c4ccccc4)nc3c2)no1 |  | active: 4.65 µM
58 | Cc1ccc2oc(=O)c3cnn(CC(=O)NCCN4CCOCC4)c3c2c1 |  | active: 9.28 µM
59 | Cc1ccc(-n2c3c(c(=O)[nH]c2=O)C(C(F)(F)F)(C(F)(F)F)NC(=O)N3)cc1 | inactive: 29.9% | 
60 | CCc1ccc(NC(=O)C(C)OC(=O)c2ccc(N3CCCC3)c([N+](=O)[O-])c2)cc1 (configuration not stated) | inactive: -16.5% | 
61 | Cc1ccc(S(=O)(=O)NC2=NCN(C(C)C)CN2)cc1 |  | inconclusive: 4.65 µM [inhibitor, partial curve, poor fit]
62 | COc1ccc(C(=O)NC2CCCCCC2)cc1OC1CCN(C(C)=O)CC1 |  | inconclusive: 1.85 µM [inhibitor, single point]
63 | O=C(O)CS(=O)CC(=O)Nc1cccc(C(F)(F)F)c1 (configuration not stated) | inactive: -2.88% | 
64 | CC(C)N1C(=O)c2ccccc2C1C(=O)NCCc1ccccc1 (configuration not stated) |  | active: 8.28 µM
65 | CC(NCc1ccc(F)cc1)C(=O)Nc1cc(S(=O)(=O)N2CCCCC2)ccc1Cl (configuration not stated) |  | inconclusive: 10.4 µM [inhibitor, partial curve]
66 | CCNC(=O)c1ccccc1NC(=O)c1cccc(S(=O)(=O)N2CCOCC2)c1 |  | inconclusive: 13.1 µM [inhibitor, single point]
67 | CCOc1ccc(OCC)c(NC(=O)c2ccc(CNc3c(N4CCCC4)c(=O)c3=O)cc2)c1 |  | inconclusive: 13.1 µM [inhibitor, partial curve, poor fit]
68 | COc1ccc(C2CC(c3ccccc3)=NN2S(=O)(=O)c2ccccc2)cc1 (configuration not stated) |  | inconclusive: 0.828 µM [inhibitor, partial curve, poor fit]
69 | Cc1cccc(CN2CCCC(C(=O)N3CCc4ccccc4C3)C2)c1 (configuration not stated) |  | inconclusive: 14.7 µM [inhibitor, partial curve, poor fit]
70 | Cc1cc(C=O)c(C)n1C(C)C |  | inconclusive: 18.5 µM [inhibitor, single point]
71 | C=CCSc1nnc(COc2ccc(=O)n(-c3ccccc3)n2)n1CC |  | inconclusive: 11.7 µM [inhibitor, partial curve, poor fit]
72 | Cc1nnc(SCC(=O)N2CCCC(N3CCN(c4ccc(F)cc4)CC3)C2)o1 (configuration not stated) | inactive: -3.93% | 
